These are yes or no findings as the source states them, for the method shown. In cells and extracts the contact can be indirect. Some entries that bind do so weakly or less than the wild type.
Experiments:
[1] = target: CLPP-FLAG (C-fusion Myc-FLAG-tagged human CLPP ORF, pCMV6-CLPP) (human) (UniProt Q16740); assay: co-IP; mitochondria of transfected LACE1 KD HEK293 cells solubilized with 1% Triton X-100 in TBS (2 mg/ml protein); 2 h with anti-FLAG M2 affinity beads at 4°C; five washes with TBS, 0.1% Triton X-100; native elution with 3x FLAG peptide; western blot
[2] = target: LACE1-FLAG (C-fusion Myc-FLAG-tagged human LACE1 ORF, pCMV6-LACE1) (human) (UniProt Q8WV93); assay: as above

By UniProt entry, the sequences of proteins in these tests, tags left out.
UniProt Q8WV93: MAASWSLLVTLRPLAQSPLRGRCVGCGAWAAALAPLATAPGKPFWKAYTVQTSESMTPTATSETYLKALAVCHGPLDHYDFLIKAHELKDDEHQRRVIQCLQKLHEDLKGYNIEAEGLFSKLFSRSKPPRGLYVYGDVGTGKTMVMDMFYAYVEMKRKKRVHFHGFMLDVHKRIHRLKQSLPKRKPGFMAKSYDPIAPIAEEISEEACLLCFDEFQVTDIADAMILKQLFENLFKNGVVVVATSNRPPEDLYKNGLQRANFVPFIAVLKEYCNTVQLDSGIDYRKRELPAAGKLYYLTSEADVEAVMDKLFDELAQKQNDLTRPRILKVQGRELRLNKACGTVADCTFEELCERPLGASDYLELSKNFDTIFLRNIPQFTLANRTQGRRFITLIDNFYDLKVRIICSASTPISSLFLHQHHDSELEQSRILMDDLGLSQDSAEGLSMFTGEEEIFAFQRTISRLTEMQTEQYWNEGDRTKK

p53 tumor suppressor protein (from UniProt P04637 1-393)
binding [1]: no binding
binding [2]: binds
